Experimental data: the M2OR odorant receptor database
This is one part of the list. The calls were merged from several studies; some rest on single wells.

How the values were obtained:
Conditions in all cases: stereoisomer not certain
O13J1 = test system: T1, O13J1
T1 sequence (whole entry): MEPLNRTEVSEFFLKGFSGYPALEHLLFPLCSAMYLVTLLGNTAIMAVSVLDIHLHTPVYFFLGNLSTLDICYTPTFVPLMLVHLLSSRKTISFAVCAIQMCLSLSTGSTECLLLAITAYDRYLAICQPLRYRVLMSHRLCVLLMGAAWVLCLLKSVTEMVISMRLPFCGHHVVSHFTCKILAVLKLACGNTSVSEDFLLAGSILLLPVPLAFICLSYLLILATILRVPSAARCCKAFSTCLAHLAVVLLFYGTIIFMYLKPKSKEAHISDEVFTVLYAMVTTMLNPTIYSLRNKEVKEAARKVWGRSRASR
Summary of the method: (§1)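 Transient luciferase assays in mammalian cell lines were common, though methods varied by source. The values come from published papers and their supplementary material, with extra details from the original authors when needed. Responsive refers to a measured signal the original authors judged statistically different from baseline, and non-responsive (inactive) to the remainder.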

O14A2 = test system: T2, O14A2
T2 sequence (whole entry): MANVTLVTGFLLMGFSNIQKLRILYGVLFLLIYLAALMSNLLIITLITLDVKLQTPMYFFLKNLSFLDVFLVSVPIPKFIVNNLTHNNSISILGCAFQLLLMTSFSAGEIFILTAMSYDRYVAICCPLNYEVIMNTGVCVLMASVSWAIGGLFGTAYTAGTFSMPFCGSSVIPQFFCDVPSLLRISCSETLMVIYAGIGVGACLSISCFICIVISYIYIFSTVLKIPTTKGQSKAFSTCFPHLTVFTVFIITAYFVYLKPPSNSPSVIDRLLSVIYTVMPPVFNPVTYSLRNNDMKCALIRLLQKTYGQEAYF
Summary of the method: as §1

O14AG = test system: T3, O14AG
T3 sequence (whole entry): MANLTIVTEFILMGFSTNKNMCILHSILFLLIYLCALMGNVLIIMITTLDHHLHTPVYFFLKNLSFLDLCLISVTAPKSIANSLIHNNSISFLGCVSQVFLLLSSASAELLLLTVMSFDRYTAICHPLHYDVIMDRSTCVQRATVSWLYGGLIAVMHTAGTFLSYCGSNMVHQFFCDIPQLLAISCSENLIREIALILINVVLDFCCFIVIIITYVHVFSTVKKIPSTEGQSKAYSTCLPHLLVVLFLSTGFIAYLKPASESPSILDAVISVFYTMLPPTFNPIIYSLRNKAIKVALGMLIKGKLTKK
Summary of the method: as §1

O14CZ = test system: T4, O14CZ
T4 sequence (whole entry): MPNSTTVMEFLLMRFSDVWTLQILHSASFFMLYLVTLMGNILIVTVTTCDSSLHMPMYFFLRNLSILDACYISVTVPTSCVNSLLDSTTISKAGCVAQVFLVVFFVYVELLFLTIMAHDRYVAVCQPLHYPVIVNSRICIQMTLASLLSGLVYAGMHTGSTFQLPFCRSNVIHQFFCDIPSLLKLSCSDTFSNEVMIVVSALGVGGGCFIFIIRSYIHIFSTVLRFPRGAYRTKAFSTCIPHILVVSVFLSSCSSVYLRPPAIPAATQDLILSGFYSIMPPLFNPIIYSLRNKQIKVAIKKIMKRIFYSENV
Summary of the method: as §1

O14I1 = test system: T5, O14I1
T5 sequence (whole entry): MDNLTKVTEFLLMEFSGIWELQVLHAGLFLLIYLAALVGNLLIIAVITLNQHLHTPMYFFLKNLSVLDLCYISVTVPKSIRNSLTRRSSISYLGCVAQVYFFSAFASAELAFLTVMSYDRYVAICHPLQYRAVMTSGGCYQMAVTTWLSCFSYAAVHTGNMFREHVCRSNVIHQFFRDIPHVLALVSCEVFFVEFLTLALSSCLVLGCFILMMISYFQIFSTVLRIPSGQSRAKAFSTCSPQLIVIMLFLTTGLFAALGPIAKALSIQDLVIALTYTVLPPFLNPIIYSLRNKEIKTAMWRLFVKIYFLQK
Summary of the method: as §1

O14J1 = test system: T6, O14J1
T6 sequence (whole entry): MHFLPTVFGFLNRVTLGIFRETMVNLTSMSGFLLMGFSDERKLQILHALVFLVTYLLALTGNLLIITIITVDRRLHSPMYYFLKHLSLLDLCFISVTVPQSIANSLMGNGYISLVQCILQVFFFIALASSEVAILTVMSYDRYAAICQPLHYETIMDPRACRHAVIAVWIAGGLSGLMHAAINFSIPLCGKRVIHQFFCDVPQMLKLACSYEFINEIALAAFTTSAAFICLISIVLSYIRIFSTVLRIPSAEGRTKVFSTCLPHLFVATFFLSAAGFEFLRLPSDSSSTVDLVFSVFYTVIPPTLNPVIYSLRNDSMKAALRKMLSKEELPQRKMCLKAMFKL
Summary of the method: as §1

O14K1 = test system: T7, O14K1
T7 sequence (whole entry): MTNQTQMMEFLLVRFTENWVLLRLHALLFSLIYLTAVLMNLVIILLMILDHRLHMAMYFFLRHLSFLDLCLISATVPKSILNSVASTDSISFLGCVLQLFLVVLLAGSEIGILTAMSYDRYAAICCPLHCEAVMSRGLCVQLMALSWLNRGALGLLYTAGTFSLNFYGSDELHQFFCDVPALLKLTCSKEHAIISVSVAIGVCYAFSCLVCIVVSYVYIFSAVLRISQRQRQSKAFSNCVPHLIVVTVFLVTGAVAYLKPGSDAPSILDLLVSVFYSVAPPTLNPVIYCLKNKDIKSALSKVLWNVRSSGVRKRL
Summary of the method: as §1

O14L1 = test system: T8, O14L1
T8 sequence (whole entry): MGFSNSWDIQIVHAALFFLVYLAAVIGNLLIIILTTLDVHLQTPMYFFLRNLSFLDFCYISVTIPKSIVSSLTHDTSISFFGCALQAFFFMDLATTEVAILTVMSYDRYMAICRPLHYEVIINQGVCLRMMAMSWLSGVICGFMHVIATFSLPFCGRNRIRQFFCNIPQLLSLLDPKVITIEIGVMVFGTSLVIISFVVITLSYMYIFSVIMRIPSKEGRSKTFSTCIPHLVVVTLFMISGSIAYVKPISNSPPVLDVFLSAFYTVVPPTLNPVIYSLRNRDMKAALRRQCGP
Summary of the method: as §1

O2A14 = test system: T9, O2A14
T9 sequence (whole entry): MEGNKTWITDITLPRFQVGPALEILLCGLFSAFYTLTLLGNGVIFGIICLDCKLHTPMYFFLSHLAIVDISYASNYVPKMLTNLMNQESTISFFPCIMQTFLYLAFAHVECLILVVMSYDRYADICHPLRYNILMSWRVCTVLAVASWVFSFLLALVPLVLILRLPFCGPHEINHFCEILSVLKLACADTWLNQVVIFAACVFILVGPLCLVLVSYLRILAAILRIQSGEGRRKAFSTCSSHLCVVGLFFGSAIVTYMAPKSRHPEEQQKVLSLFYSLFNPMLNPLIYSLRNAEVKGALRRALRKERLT
Summary of the method: as §1

O2AE1 = test system: T10, O2AE1
T10 sequence (whole entry): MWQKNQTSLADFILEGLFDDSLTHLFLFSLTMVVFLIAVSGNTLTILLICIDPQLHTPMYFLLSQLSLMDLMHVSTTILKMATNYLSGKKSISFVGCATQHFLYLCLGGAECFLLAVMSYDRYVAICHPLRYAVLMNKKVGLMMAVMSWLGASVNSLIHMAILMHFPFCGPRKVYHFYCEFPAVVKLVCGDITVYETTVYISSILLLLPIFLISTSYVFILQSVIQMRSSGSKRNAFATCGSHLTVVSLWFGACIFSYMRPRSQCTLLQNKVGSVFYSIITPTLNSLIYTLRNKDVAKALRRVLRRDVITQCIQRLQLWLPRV
Summary of the method: as §1

Measured: odorant receptor agonist call;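 note: active if original authors judged signal statistically different from baseline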

CCC(C)=O
inactive: O13J1 | O14A2 | O14AG | O14CZ | O14I1 | O14J1 | O14K1 | O14L1 | O2A14 | O2AE1
